Reference: article PMC12847834
No constants are given. Whether binding was seen depends on the method and setting. In cells and extracts the contact can be indirect. Some entries that bind do so weakly or less than the wild type. For some of these results: Tags and fused reporters may be left off the sequences shown.

Protein sequences, listed by entry. Tags and fused reporters are not part of them. Lines headed by an entry give the natural chain unless they say otherwise; changes in a name come on top.
UniProt Q93009: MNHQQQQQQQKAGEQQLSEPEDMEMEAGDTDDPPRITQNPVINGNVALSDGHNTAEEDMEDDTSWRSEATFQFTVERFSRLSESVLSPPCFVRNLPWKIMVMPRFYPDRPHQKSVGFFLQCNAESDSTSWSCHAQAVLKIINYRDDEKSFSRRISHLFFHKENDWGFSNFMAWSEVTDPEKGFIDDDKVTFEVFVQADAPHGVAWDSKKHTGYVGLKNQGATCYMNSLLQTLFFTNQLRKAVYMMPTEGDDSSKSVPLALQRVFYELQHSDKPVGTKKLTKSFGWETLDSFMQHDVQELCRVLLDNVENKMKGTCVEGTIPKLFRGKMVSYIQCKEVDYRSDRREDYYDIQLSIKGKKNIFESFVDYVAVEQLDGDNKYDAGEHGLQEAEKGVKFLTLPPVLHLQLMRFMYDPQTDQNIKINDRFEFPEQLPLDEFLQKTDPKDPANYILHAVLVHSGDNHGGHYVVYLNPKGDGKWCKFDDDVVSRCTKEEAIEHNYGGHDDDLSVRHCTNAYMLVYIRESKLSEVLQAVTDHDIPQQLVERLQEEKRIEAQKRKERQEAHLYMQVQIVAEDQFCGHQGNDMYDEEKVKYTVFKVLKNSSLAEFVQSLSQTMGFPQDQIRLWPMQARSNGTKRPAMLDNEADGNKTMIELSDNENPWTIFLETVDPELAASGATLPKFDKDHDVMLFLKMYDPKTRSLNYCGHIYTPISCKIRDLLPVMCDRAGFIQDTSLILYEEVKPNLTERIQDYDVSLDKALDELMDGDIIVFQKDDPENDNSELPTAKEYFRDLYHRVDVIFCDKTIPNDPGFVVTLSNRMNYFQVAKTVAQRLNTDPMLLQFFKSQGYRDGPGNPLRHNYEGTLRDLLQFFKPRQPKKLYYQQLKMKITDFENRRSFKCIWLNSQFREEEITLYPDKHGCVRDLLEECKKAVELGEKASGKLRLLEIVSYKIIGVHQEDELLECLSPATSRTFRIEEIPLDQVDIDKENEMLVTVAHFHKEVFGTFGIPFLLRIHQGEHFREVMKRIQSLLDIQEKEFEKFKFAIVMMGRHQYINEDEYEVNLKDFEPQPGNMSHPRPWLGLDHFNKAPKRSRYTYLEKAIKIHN

Assays:
[1] = target: T1, Flag-KDM4A (full-length lysine demethylase 4A) (UniProt O75164); assay: co-IP; HEK293T cells co-transfected with HA-USP7 and Flag-KDM4A constructs (full length and fragments); co-IP and Western blot
T1 sequence: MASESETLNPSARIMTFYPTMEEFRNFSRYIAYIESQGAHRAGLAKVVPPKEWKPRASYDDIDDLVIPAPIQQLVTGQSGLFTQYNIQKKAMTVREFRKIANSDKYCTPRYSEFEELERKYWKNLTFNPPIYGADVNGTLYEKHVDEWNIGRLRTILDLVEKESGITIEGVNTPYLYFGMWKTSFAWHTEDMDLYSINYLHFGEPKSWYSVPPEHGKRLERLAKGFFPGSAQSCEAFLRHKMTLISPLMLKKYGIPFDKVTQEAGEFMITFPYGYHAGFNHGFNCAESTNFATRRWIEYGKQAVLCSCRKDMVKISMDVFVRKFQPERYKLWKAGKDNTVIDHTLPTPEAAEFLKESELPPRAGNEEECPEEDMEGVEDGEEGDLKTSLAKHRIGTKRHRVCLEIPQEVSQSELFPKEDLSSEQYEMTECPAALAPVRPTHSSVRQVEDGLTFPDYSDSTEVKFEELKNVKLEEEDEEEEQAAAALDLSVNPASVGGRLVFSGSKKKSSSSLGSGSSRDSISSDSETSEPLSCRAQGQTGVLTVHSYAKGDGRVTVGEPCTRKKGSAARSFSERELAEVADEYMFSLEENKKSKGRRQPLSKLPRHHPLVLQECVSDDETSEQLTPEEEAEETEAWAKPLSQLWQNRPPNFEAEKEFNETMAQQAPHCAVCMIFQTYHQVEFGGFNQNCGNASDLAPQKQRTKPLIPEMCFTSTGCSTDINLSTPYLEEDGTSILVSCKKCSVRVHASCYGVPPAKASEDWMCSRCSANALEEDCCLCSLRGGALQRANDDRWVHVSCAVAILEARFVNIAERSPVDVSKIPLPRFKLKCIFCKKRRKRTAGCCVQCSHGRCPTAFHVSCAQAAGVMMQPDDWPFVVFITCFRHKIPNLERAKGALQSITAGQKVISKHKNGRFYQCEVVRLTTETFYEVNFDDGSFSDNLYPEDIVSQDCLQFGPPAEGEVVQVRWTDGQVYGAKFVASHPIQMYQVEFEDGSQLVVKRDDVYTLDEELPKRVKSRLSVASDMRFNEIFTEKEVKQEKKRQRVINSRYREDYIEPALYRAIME

[2] = target: T2, KDM4A (lysine demethylase 4A), endogenous (human (endogenous in T24 and 5637)) (UniProt O75164); assay: co-IP; T24 and 5637 cell lysates; IP with IgG (control) versus KDM4A or USP7 antibody; Western blot
T2 sequence: T1 sequence

GST-KDM4A, recombinant = target: T3, GST-KDM4A, recombinant (UniProt O75164); assay: pull-down; purified recombinant GST-KDM4A with lysates of HEK293T cells transfected with HA-USP7; Western blot with GST-tag and HA-tag antibodies; GST-NC (empty vector) as negative control; only the target purified
T3 sequence: T1 sequence

[3] = target: T4, Flag-KDM4A 886-1064aa fragment (UniProt O75164); assay: co-IP; HEK293T cells co-transfected with HA-USP7 and Flag-KDM4A constructs (full length and fragments); co-IP and Western blot
T4 sequence: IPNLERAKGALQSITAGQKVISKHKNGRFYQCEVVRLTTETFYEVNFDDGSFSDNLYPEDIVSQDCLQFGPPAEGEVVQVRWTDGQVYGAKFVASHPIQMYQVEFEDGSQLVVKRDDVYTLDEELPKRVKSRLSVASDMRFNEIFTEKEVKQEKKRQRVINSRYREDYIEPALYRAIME

Q: Which binding [1] does the source give for “HA-USP7 561-1102aa fragment (from UniProt Q93009 561-1102) (domain or fragment)” here?
A: binds

Q: For “USP7 (ubiquitin-specific processing protease 7), endogenous (from UniProt Q93009 1-1102)”, which binding [2] is on record?
A: binds

Q: Which binding (GST-KDM4A, recombinant) does the source give for “HA-USP7 (full-length) (from UniProt Q93009 1-1102)” here?
A: binds

Q: What about the binding [3] of the same substance?
A: binds
